Reference: patent publication US20090311237A1, “Combination therapy using a soluble hyaluronidase and a bisphosphonate” (priority 2008, published 2009)

Assay: C-terminal heterogeneity of soluble rHuPH20 (Asp-N digestion, C-terminal sequencing)
[1] = Lot HUA0505MA (3D35M cells, 100 L bioreactor)
[2] = Lot HUB0701EB (2B2 cells, 300 L bioreactor)

Substance	Abundance of C-terminal fragment [1]	Abundance of C-terminal fragment [2]
D28a (DAFLKPPMETEEPQIFY; soluble rHuPH20 1-447; listed as Homo sapiens)	0.2%	1.9%
D28b (DAFLKPPMETEEPQIF; soluble rHuPH20 1-447; listed as Homo sapiens)	18.4%	46.7%
